Reference: the supplement of paper PMC8551327
Counter-ions that a name gives are not always drawn. This is one part of the list. Rule as the data show it: active = 1.25 or more and inactive = the rest. Single values are uncertain, as repeats are few or missing.

test system: Kcc2-LUC knock-in mouse primary cortical neurons (Kcc2 promoter reporter); assay: Kcc2 promoter-driven luciferase activity relative to vehicle control (fold of vehicle (ratio)); higher = stronger Kcc2 promoter activation (Kcc2 expression enhancer); settings: 100 nM; 48 h

Kcc2 promoter-driven luciferase activity, inactive:
CNc1nc(N(C)C)nc(N(C)C)n1 [Pentamethylmelamine Hydrochloride] 0.97
CN(C)c1ccc(/C=N/N=C2\C(=O)Nc3c(Cl)cc(Cl)cc32)cc1 0.92
OC(CN1CCCCC1)c1ccc(/C=C/c2ccc(Cl)cc2)cc1 (stereo not drawn) [1-Piperidineethanol, alpha-[p-(p-chlorostyryl)phenyl]-] 1.03
O=C1NC(c2cccc3ccccc23)Nc2ccc(Cl)cc21 (centres undefined) [6-Chloro-2-naphthalen-1-yl-2,3-dihydro-1H-quinazolin-4-one] 1.1
COc1ccc2c3c([nH]c2c1N)C(C)NCC3 (centres undefined) 0.92
O=C(CC1(O)C(=O)Nc2c(Cl)cc(Cl)cc21)c1cccc2ccccc12 (centres undefined) 0.9
CC(C)(C)[Si](C)(C)OCC1CCC(n2cnc3c(N)ncnc32)O1 (centres undefined) 0.93
C[C@@H]1C[C@H]2OC(=O)[C@@]3(C)CCC[C@@](C)([C@@H]23)[C@@]1(O)CCc1ccoc1 [Marrubiin] 0.87
CCCC(=O)[O-].[Na+] [Sodium Butyrate] 1.09
[Mo] [hexapotassium] 1
C=C(C)C1CCC2(C(=O)O)CCC3(C)C(CCC4C5(C)CCC(O)C(C)(C)C5CCC43C)C12 (centres undefined) 0.997
CC1(C)NC(=O)N(CCCCCCN2C(=O)NC(C)(C)C2=O)C1=O 1.13
Clc1ccc(C(c2ccccc2Cl)C(Cl)Cl)cc1 (centres undefined) [Mitotane] 0.9
Cc1ccc2[c](c1)[Sn]([c]1ccccc1)([c]1ccccc1)[c]1cc(C)ccc1N2C [2,5,8-Trimethyl-10,10-diphenylbenzo[b][1,4]benzazastannine] 0.73
O=C(CC1(O)C(=O)Nc2c(Cl)ccc(Cl)c21)c1ccc(Cl)cc1Cl (centres undefined) 1.01
Cn1cnc([N+](=O)[O-])c1Sc1nnc(-c2cccnc2)n1C 0.9
C=C1C(=O)OC2/C=C(/CO)[C@@H](OC(C)=O)C[C@H](O)/C(C)=C\[C@@H](OC(=O)[C@@H](C)CC)[C@@H]12 (some centres undefined) [Eurecurvin] 0.91
CCCCCCCCCCCCCCCCCCOP(=O)([O-])OCC[N+](C)(C)C [Octadecylphosphocholine] 0.79
C=CC(=O)N1C/C(=C\c2ccc(Cl)cc2)C(=O)/C(=C/c2ccc(Cl)cc2)C1 [1-Acryloyl-3,5-bis(4-chlorobenzylidene)piperidine-4-one] 0.8
CC(=O)NCCCCCCNC(C)=O [Hexamethylene Bisacetamide] 1.13
CC1=C2[C@H]3OC(=O)[C@@H](C)[C@@H]3CC[C@@]2(C)C=C/C1=N\O [Santonine Oxime] 0.924
COc1cc(CC(=O)c2cc3c(cc2-c2ccccc2)OCO3)cc(OC)c1OC 0.79
CC1(C)S[C@@H]2[C@H](NC(=O)C(C(=O)O)c3ccccc3)C(=O)N2[C@H]1C(=O)O (some centres undefined) [Carbenicillin] 1.05
COc1ccc2c(c1OC)C(=O)O[C@@H]2[C@H]1c2c(cc3c(c2OC)OCO3)CCN1C [Noscapine] 1.05
COc1ccc(-c2cc(-c3ccccc3)nc3c2CC(=O)Nc2ccccc2-3)cc1OC 0.74
O=C(Nc1ccc(Sc2ccc(N=Nc3c(O)c(S(=O)(=O)O)cc4cc(S(=O)(=O)O)ccc34)cc2)cc1)c1ccc(N=Nc2c(O)ccc3c(S(=O)(=O)O)cc(S(=O)(=O)O)cc23)cc1 1.07
COC(=O)c1ccccc1OCc1cc(=O)oc2ccc(C)cc12 [Methyl 2-[(6-methyl-2-oxochromen-4-yl)methoxy]benzoate] 1.03
CC(=O)c1sc2c(c1OC(=O)c1ccc(Cl)cc1Cl)c(=O)n(-c1ccccc1)c(=S)n2-c1ccccc1 0.78
O=C(C[n+]1ccc2ccccc2c1)c1ccc2ccc3ccccc3c2c1 [2-isoquinolin-2-ium-2-yl-1-phenanthren-3-ylethanone;iodide] 0.48
CN1CCCC2C(c3ccccc3)C(C3=NCCCC3)C(c3ccccc3)CC21 (centres undefined) [Lobinaline, monohydrochloride] 0.88
C=C1C(=O)C23CC[C@@H]4C(C)(C(=O)OC)CCCC4(C)[C@@H]2CCC1(O)C3 (some centres undefined) 0.963
CCS(=O)(=O)Nc1ccc(Nc2c3ccccc3nc3ccccc23)c(OC)c1 [Ethanesulfonamide, monomethanesulfonate] 1.1
COC(=O)C[C@](O)(CCCC(C)(C)O)C(=O)O[C@@H]1C(OC)=C[C@]23CCCN2CCc2cc4c(cc2[C@H]13)OCO4 [Omacetaxine] 1.06
CC1=CC(=C(c2ccc(N)cc2)c2ccc(N)cc2)C=CC1=N [Basic Violet 14] 1.04
Cc1nc2c(o1)C(=O)c1ccccc1C2=Nc1ccccc1 [2-Methyl-4-phenyliminobenzo[f][1,3]benzoxazol-9-one] 0.75
CN1CC[C@]23c4ccccc4N[C@H]1[C@]21CCN(C)[C@H]3Nc2ccccc21 [Calycanthine] 0.75
O=C1C=CC(=O)c2c(O)c(N3CCN(CCOCCO)CC3)c(Br)c(O)c21 0.86

Quoted at random: 2 entries already listed, in no set order.
Kcc2 promoter-driven luciferase activity, inactive:
CC1(C)S[C@@H]2[C@H](NC(=O)C(C(=O)O)c3ccccc3)C(=O)N2[C@H]1C(=O)O (some centres undefined) [Carbenicillin] 1.05
CN1CC[C@]23c4ccccc4N[C@H]1[C@]21CCN(C)[C@H]3Nc2ccccc21 [Calycanthine] 0.75

Next part.

Kcc2 promoter-driven luciferase activity, active:
O=C1C(=O)c2ccccc2C(O)=C1CC=C(Cl)Cl [dichloroallyl lawsone] 1.33
CC(C)[Si]1(C(C)C)OCC2OC(n3cnc4c(N)ncnc43)C(N)C2O[Si](C(C)C)(C(C)C)O1 (centres undefined) 1.35
